Measurements reported in publication PMC9090832.
Results are given in words; binding and its absence hold for the method and conditions named. For part of these data: Binding seen in cells or lysates may run through a third protein. Some entries that bind do so weakly or less than the wild type. For part of these data: Sequences can lack the tags named with a protein.

T1: FLAG-tagged Olig2 (UniProt Q9EQW6)
T1 sequence: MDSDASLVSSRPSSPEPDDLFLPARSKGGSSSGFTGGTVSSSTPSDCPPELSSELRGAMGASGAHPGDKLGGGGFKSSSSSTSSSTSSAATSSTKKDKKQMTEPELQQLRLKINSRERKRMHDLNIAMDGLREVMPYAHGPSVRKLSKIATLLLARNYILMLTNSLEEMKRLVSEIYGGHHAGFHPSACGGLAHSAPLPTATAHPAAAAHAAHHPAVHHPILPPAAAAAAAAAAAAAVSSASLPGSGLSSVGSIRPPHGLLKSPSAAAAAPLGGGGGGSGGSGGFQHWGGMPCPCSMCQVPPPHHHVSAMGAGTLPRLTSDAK

T2: Oligodendrocyte transcription factor 2 (Olig2), full-length, yeast two-hybrid bait (UniProt Q9EQW6)
T2 sequence: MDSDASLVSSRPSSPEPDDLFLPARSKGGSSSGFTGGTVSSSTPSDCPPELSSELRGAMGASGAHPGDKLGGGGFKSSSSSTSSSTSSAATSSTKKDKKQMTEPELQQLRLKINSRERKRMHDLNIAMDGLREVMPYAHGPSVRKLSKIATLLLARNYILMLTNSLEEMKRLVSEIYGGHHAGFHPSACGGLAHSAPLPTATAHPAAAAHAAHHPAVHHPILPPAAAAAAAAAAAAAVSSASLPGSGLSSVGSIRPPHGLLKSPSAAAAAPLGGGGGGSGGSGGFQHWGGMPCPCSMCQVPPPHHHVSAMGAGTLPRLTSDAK


How the values were obtained:
FLAG-tagged Olig2 = molecular target: T1, FLAG-tagged Olig2; assay: co-IP; FLAG-tagged Olig2 co-IP in transfected HEK293 cells; immunoprecipitates analysed with anti-HA and anti-FLAG antibodies
[1] = molecular target: T2, Oligodendrocyte transcription factor 2 (Olig2), full-length, yeast two-hybrid bait; assay: two-hybrid; yeast two-hybrid screening; full-length Olig2 as bait; mouse embryonic brain cDNA library fused with the LexA activation domain

binding (FLAG-tagged Olig2)	binding [1]	Molecule
binds		HA-tagged Ddx20 (from UniProt Q9JJY4 1-825)
no binding		HA-tagged Ddx20ΔC, a truncated form of Ddx20 lacking the C-terminal region (730-825 aa) (from UniProt Q9JJY4 1-729) (domain or fragment)
	binds	Ddx20 C-terminal region (748-825 aa), yeast two-hybrid prey (domain or fragment, UniProt Q9JJY4 748-825) QSEPQEESWYDCHRETTASFSDTYQDYEEYWRAYYRAWQEYYAAASHSYYWNAQRHPSWMAAYHMNTVYLQEMMRGNQ
